Laboratory results reported in paper PMC4806907.
Results are given in words; binding and its absence hold for the method and conditions named. Binding seen in cells or lysates may run through a third protein. Some results given as binding are weak or reduced against the parent protein; the word gives no strength.

Chains of the proteins cited; added tags and fusions are not shown.
UniProt P39447: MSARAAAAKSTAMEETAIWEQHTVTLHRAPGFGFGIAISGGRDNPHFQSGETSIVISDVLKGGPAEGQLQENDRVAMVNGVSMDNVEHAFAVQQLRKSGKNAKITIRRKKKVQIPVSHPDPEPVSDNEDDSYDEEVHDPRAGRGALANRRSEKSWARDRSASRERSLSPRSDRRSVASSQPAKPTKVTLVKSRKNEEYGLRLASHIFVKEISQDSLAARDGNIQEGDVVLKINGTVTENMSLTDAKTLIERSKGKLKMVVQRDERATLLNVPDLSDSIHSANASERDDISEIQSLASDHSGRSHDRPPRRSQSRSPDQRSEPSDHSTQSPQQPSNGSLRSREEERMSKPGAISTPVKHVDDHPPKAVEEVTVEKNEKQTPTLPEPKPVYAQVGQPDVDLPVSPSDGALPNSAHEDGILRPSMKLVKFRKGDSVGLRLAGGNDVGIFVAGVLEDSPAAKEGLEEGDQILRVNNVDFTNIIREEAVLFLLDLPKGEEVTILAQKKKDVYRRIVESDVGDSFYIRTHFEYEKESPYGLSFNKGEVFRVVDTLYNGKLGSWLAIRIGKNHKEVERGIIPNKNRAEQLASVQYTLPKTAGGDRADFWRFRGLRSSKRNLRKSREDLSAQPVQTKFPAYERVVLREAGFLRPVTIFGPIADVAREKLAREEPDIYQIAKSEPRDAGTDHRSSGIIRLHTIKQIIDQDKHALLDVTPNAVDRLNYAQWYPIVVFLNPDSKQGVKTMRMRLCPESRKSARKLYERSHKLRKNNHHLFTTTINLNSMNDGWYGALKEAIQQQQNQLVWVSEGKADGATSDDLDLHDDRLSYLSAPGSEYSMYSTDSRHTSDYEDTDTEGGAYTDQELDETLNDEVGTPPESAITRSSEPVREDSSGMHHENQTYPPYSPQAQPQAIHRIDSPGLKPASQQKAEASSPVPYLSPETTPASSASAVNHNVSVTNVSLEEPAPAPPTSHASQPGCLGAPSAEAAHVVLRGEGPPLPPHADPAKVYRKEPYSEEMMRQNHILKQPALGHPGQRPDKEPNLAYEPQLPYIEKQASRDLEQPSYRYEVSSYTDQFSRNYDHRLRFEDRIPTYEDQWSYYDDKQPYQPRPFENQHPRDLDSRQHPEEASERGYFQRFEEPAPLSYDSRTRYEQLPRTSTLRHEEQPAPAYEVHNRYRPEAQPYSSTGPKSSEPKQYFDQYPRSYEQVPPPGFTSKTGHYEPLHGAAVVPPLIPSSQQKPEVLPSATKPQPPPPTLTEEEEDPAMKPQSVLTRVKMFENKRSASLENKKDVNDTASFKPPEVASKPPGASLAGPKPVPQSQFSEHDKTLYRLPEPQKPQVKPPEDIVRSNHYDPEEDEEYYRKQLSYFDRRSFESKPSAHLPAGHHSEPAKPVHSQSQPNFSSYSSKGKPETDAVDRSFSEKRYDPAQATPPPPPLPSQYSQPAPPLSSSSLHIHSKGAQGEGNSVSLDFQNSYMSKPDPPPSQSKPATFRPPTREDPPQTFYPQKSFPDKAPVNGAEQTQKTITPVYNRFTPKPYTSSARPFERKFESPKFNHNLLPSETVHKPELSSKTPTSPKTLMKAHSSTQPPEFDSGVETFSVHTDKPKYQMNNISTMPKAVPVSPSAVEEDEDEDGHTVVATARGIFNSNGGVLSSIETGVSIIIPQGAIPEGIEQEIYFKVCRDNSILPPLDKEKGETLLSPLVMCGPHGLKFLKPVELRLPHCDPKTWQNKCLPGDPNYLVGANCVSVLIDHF

Target: Zona occludens (ZO)-1 (mouse (endogenous in CLDE cells)) (UniProt P39447)
Assay: co-IP; endogenous proteins in lysates of CLDE cells cultured for 1 week in the presence of Ca2+; antibodies against PKP1 or ZO-1 (normal rabbit IgG as control) on protein G magnetic beads, incubated with samples 1 h at 4°C; western blotting

- binding: binds
B1: Plakophilin (PKP)1 (protein, UniProt P97350 1-728)
chain: MNHSPLKTALAYECFQDQDNSTLALPSDQKMKTGTSGRQRVQEQVMMTVKRQKSKSSQSSTLSHSNRGSMYDGLADNYNNYGTTSRSSYFSKFQAGNGSWGYPIYNGTLKREPDNRRFSSYSQMENWSRHYPRGSCATPGAGSDICFMQKIKASRSEPDLYCDPRGTLRKGTLGSKGHKTTQNRCSFYSTCSGQKAVKKCPVRPPSCTSKQDPVYVPPISCNKDLSFGHSRASSKICSEDIECSGLTIPKAVQYLCSQDEKYQAIGAYYIQHTCFQDESAKQQVYQLGGICKLVDLLRSPNQNVQQAAAGALRNLVFRSTPNKLETRRQNGIREAVSLLRRSGSTEIQKQLTGLLWNLSSTDELKEELVADALPVLTDRVIIPFSGWCDGNSNMSREVVDPEVFFNATGCLRNLSSADAGRQTMRNYSGLIDSLMAYVQNCVAASRCDDKSVENCMCILHNLSYRLDAEVPTRYRQLEYNTRNAYTEKSSTGCFSNRGDKMMNNNYDCPLPEEETNPKGSSWLYHSDAIRTYLNLMGKSKKDATLEACAGALQNLTASKGLMSNGMSQLIGIKEKGLPQIARLLQSGNSDVVRSGASLLSNMSRHPVLHRVMGNQVFPEVTRLLTSHTGNTSNSEDILSSACYTVRNLMTSQPQMAKQYFSNSMLNNVFNLCRNTASSPKAAEAARLLLSDMWASKELQSVLRQQGFDRNMMGNIAGANNLRNFTSRF
